These are yes or no findings as the source states them, for the method shown. Binding seen in cells or lysates may run through a third protein. Some entries that bind do so weakly or less than the wild type. Tags and fused reporters may be left off the sequences shown.
What was measured:
[1] = target: T1, fusion protein of FLAG with HCCR-1 (FLAG-HCCR-1) (human) (UniProt Q6P1Q0); assay: co-immunoprecipitation and western blot from co-transfected CHO cells (figure legend)
T1 sequence: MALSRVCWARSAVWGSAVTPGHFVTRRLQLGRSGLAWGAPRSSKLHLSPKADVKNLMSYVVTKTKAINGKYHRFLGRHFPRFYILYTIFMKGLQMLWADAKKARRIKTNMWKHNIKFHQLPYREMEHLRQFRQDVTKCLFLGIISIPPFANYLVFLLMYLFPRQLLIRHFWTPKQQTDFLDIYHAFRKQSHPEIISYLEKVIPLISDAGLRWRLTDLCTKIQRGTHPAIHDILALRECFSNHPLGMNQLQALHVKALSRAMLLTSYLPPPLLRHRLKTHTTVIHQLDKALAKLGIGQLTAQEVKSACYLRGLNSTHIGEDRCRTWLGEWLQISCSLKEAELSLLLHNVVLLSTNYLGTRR

Amino acid sequences for entries named in this document (tags omitted).
UniProt O43399: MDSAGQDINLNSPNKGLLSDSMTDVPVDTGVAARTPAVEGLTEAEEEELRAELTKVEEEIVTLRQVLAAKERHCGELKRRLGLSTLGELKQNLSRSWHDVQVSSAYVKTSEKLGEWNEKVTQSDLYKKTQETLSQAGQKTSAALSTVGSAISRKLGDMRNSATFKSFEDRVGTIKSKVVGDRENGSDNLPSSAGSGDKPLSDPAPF

[2] = target: T1, fusion protein of FLAG with HCCR-1 (FLAG-HCCR-1) (human); assay: reciprocal co-immunoprecipitation (anti-FLAG or anti-GST) and western blot from co-transfected CHO cells

Substance: fusion protein of GST with D52 (GST-TPD52L2) (from UniProt O43399 1-206)
- binding [1]: binds
- binding [2]: binds
